{"source": "PubChem BioAssay (EPA / NIEHS)", "note": "The shares of active, inactive and inconclusive entries below differ from those in the screen. Where the call is inconclusive, the potency comes from a doubtful curve fit. The source made the active and inactive calls. Rule for the calls: active = hit-call score of the fitted dose curve at least 0.9, where 1 is the maximum; inconclusive = response in the unintended direction; inactive = score below 0.9.", "data": [{"read-out": "HMG-CoA synthase (HMGCS2), HMGCS2 (gene 3158)", "assay": "CLD_HMGCS2_48hr: CellzDirect (CLD) Gene Expression Assay for HMG-CoA synthase (HMGCS2) at 48 hours (AID 2283711)", "procedure": "CLD_48hr is a cell-based, multiplexed-readout assay that uses hepatocyte, a human liver primary cell, with measurements taken at 48 hours after chemical dosing in a 96-well plate.CLD_HMGCS2_48hr is one of 16 assay component(s) measured or calculated from the CLD_48hr assay. It is designed to make measurements of mRNA induction, a form of inducible reporter, as detected with chemiluminescence signals by Quantitative Nuclease Protection Assay (qNPA) technology.Data from the assay component CLD_HMGCS2_48hr was analyzed at the endpoint, CLD_HMGCS2_48hr, in the positive analysis fitting direction relative to DMSO as the negative control and baseline of activity. Using a type of inducible reporter, gain-of-signal activity can be used to understand changes in the reporter gene as they relate to the gene HMGCS2. Furthermore, this assay endpoint can be referred to as a primary readout. To generalize the intended target to other relatable targets, this assay endpoint is annotated to the lyase intended target family, where subfamily is HMG-CoA synthase.\nHuman hepatocyte cultures were treated daily for two consecutive days with fresh dosing solutions containing appropriate concentrations of the 320 ToxCast chemicals (chemical identities were blinded to CellzDirect and other ToxCast collaborators), vehicle control (0.2% DMSO), and positive control inducers as summarized in Table 1. Due to the large number of treatment groups and chemicals examined, the ToxCast chemicals were divided into two groups (spanning two independent cultures of hepatocytes from separate donor preparations (Hu778: ToxCast plates 1 and 2; Hu776: ToxCast plates 3 and 4). Each preparation of human hepatocyte cultures was treated with respective vehicle control, medium only control, set of six positive controls/reference chemicals for the five hepatic receptor pathways, and a subset of eight of the ToxCast chemicals (indoxacarb, pyrithiobac-sodium, norflurazon, cyhalofop-butyl, methomyl, thiram, acetochlor, and propiconazole). These replicate data, coupled with internal replicates designed within the blinded ToxCast chemical library, provided additional data to evaluate interindividual differences between hepatocyte preparations and their potential impact on chemical profiles.Cell morphology and integrity were evaluated using phase-contrast microscopy as an indicator of hepatocyte cell health (Tyson & Green, 1987). Cultures for each treatment group (i.e., media, vehicle [0.2% DMSO], positive control inducers [multiple concentrations], and the ToxCast chemicals [multiple concentrations]) were observed and cell morphology was assessed relative to vehicle control cultures at each harvest time point (0, 6, 24, or 48 h). […] Images were evaluated at the conclusion of the study to assess changes in cell integrity and account for the effects of chemical exposure on uncharacteristic changes in concentration-dependent gene expression profiles. The results from these determinations of apparent cytotoxicity were annotated (yes/no) alongside the corresponding qNPA data for reference.At the conclusion of each treatment period, hepatocyte cultures (96-well) were washed with 1 volume of HBSS, lysed by addition of 25 ul ArrayPlate lysis buffer (HTG, Tucson, AZ), and 70 ul/well of Denaturation Oil, denatured by incubation at 95C for 10 min, and frozen at approximately -70C until analysis by nuclease protection assay (qNPA) (Roberts et al., 2007). For qNPA analysis, cell lysates were thawed at 50C for approximately 30 min, qNPA probes were added, and samples were incubated at 95C for 10 min to begin the detection process by denaturing the target RNA, dissociating the duplexes and secondary structure hybridization. At the conclusion of the hybridization period, S1 nuclease reagent was added to each sample to digest all nonprotected nucleotides at 50C for 60-90 min. […]", "values": [{"smiles": "CCOC(=O)C(C)Oc1ccc(Oc2cnc3cc(Cl)ccc3n2)cc1", "note": "(configuration not stated)", "AC50": "active: 6.86 µM"}, {"smiles": "COc1nc(C)nc(NC(=O)NS(=O)(=O)c2ccccc2OCCCl)n1", "outcome": "inactive"}, {"smiles": "O=C(O)C1(C(=O)Nc2ccc(Cl)cc2Cl)CC1", "outcome": "inactive"}, {"smiles": "COC(=O)c1ccccc1C(=O)O", "outcome": "inactive"}, {"smiles": "CCOC(=O)COc1cc(-n2ncc(C(F)(F)F)c(C)c2=O)c(F)cc1Cl", "AC50": "inconclusive: 2.66 µM"}, {"smiles": "CC(C)(c1ccc(O)cc1)c1ccc(O)cc1", "AC50": "inconclusive: 20 µM"}, {"smiles": "CC1(C)C(C=C(Cl)Cl)C1C(=O)OCc1cccc(Oc2ccccc2)c1", "note": "(configuration not stated)", "AC50": "inconclusive: 3.97 µM"}, {"smiles": "CCCOC(=O)c1ccc(C(=O)OCCC)nc1", "AC50": "active: 0.269 µM"}, {"smiles": "CCCCOC(=O)[C@@H](C)Oc1ccc(Oc2ccc(C(F)(F)F)cn2)cc1", "outcome": "inactive"}, {"smiles": "N#CSCSc1nc2ccccc2s1", "AC50": "inconclusive: 31.2 µM"}, {"smiles": "CSC(=O)c1cccc2nnsc12", "outcome": "inactive"}, {"smiles": "CCCCOC(=O)C(C)Oc1ccc(Oc2ccc(C(F)(F)F)cn2)cc1", "note": "(configuration not stated)", "AC50": "active: 0.263 µM"}, {"smiles": "Cc1nn(C)c(Oc2ccccc2)c1C=NOCc1ccc(C(=O)OC(C)(C)C)cc1", "outcome": "inactive"}, {"smiles": "CN(C)C(=O)Nc1ccc(Cl)c(Cl)c1", "AC50": "inconclusive: 38.4 µM"}, {"smiles": "CCCCCOC(=O)COc1cc(N2C(=O)C3=C(CCCC3)C2=O)c(F)cc1Cl", "AC50": "inconclusive: 0.0004 µM"}, {"smiles": "COCCO", "AC50": "inconclusive: 0.0004 µM"}, {"smiles": "c1ccc2[nH]c(-c3cscn3)nc2c1", "outcome": "inactive"}]}]}
